The values that follow come from PMC10516748.

Chains of the proteins cited; added tags and fusions are not shown. Residues count along the entry.
UniProt P05362, residues 28-532: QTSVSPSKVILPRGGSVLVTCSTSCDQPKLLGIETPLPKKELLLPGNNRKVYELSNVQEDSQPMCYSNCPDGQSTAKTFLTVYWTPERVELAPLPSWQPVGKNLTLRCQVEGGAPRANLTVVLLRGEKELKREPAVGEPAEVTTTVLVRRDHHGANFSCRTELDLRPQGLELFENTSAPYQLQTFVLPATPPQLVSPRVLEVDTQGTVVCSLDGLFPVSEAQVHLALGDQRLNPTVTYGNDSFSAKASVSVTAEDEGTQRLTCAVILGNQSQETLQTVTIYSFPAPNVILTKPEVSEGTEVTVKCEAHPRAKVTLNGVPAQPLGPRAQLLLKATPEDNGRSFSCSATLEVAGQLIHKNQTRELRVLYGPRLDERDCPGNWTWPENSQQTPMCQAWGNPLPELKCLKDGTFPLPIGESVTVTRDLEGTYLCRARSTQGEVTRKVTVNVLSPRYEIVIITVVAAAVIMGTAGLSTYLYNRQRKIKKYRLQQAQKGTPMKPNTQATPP

No constants are given. Whether binding was seen depends on the method and setting. In cells and extracts the contact can be indirect. Some entries that bind do so weakly or less than the wild type. Sequences can lack the tags named with a protein.

This assay deals with T1, ICAM2-His(6x) (UniProt P13598).
T1 sequence: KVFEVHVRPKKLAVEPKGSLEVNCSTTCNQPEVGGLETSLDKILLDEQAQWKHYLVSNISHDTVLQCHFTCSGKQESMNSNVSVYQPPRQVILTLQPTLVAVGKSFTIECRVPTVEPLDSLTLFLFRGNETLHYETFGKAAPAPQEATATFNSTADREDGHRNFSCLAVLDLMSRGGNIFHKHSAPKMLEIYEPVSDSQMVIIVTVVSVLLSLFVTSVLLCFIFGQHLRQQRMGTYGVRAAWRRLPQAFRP
Kind of assay: pull-down; purified ICAM2-His(6x) as bait, endogenous proteins of choroid plexus epithelial cells as prey, western blotting; only the target purified. Background: Immunoblotting shows a protein as a band on a membrane.

In the case of “endogenous ICAM1 of choroid plexus epithelial cells (from UniProt P05362 28-532)”, the binding result is on record as “binds”.
